Results are given in words; binding and its absence hold for the method and conditions named. In cells and extracts the contact can be indirect. Binding calls can cover weak binding; strength is not graded here. Each block holds one molecule with its values, some of them ahead of it.
What was measured:
[1] = target: T1, DmMIC60 (endogenous, fly mitochondria) (D. melanogaster (endogenous in flies)) (UniProt P91928); assay: co-IP; mitochondria isolated from WT flies (1 mg), solubilised with 1% digitonin; antisera on protein A-Sepharose, 1 h at 4°C, 10 washes with 0.3% digitonin, eluted with 0.1 M glycine pH 2.8; immunoblot; DmMIC60 and CG41128 used as baits
T1 sequence: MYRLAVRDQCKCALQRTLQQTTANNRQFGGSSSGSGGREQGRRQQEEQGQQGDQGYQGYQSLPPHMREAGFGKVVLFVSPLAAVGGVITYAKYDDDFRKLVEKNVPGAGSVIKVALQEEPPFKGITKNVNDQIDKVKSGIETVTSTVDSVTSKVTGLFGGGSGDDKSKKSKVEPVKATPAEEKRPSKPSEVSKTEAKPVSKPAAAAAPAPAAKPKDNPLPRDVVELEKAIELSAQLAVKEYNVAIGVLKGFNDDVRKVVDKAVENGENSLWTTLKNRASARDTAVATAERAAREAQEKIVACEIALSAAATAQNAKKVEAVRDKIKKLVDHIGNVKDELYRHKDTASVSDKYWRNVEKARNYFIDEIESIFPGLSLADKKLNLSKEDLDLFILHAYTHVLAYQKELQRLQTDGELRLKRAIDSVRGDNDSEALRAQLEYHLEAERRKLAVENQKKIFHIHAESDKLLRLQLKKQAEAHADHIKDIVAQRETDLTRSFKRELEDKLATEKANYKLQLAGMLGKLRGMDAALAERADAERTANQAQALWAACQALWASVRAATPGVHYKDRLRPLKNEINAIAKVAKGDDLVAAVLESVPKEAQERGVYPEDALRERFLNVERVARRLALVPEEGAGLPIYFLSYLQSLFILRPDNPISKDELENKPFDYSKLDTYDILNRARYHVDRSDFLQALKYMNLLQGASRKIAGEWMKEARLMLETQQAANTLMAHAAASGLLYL

The chains behind the UniProt entries cited, without tags or fusion partners. Where a name states a change or a piece, a line headed by the entry shows the natural chain unless it says otherwise.
UniProt Q8SY69: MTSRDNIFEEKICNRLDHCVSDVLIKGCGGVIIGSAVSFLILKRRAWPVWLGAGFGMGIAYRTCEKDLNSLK

[2] = target: Dmel_CG41128/MINOS1b/DmMIC10b (endogenous, fly mitochondria) (D. melanogaster (endogenous in flies)) (UniProt Q8SY69); assay: as above

binding [1]: binds
Molecule: Dmel_CG41128/MINOS1b/DmMIC10b (endogenous, fly mitochondria) (from UniProt Q8SY69)

binding [2]: binds
B1: DmMIC13 (endogenous, fly mitochondria) (protein, UniProt Q9VVH3 1-122)
chain: MVLGFLVRGGLVAATVYYTQKVGIWGDSDQTDKLYNDIKSELRPHVQKLEKQLPFEVPQLPKTGEMRFLAKHYYNEGVKNTFRFIHMLPCYAGRGLKKVKDTFQDFAQSPAIAGGAESSPPK

binding [2]: binds
B2: DmMIC60 (endogenous, fly mitochondria) (protein, UniProt P91928 1-739)
chain: T1 sequence
